In the supplement of paper PMC12578635:
This is one part of the list. No stated cut-off is given here; in the data, active = 150% or more and inactive = the rest. Single values are uncertain, as repeats are few or missing.

The compounds below were run on Staphylococcus aureus JE2-lux inside RAW 264.7 macrophages (assay: intracellular bacterial bioluminescence relative to DMSO vehicle; higher = higher intracellular bacterial metabolic activity). Conditions: 10 µM; treatment time 4 h; gentamicin 50 µg/ml.

Intracellular bacterial bioluminescence, inactive:
CN(C)c1ncc(C(=O)NC(c2ccccc2)c2cccnc2)cn1 (stereo not given) 118%
CS(=O)(=O)c1ccc(CC(=O)Nc2ccc3ncsc3c2)cc1 16.1%
COc1ccc(N2CCN(CCNc3ncnc4scc(-c5ccc(Cl)cc5)c34)CC2)cc1 46.5%
CC(=O)c1cccc(NC(=O)c2csc3nc(-c4ccc(F)cc4)cn23)c1 82.6%
COc1ccc(C2CC(=O)Nc3c2c(C)nn3-c2nc3ccccc3[nH]2)cc1Br (stereo not given) 81.3%
CS(=O)(=O)c1ccc(Sc2nc3ccccc3s2)c([N+](=O)[O-])c1 63.8%
CSc1nc2ccc(NC(=O)Nc3cccc(Cl)c3)cc2s1 103%
COc1cc(OC)c(NC(=O)c2sc3nc(C)nc(N4CCCC4)c3c2C)cc1Cl 105%
CN(C1CCCCC1)S(=O)(=O)c1ccc(C(=O)Nc2sccc2C(N)=O)cc1 98.6%
CCOC(=O)c1cc(C#N)c(SCC(=O)Nc2ccc(C(C)=O)cc2)nc1O 129%
COc1ccc(NC(=O)CSc2nc(-c3ccccc3)c3ccccc3n2)c(OC)c1 76.6%
COC(=O)c1ccc2c(=O)[nH]c3c(C(=O)N4CCOCC4)sc(=S)n3c2c1 85%
COCCNC(=O)c1c(O)nc2sccn2c1=O 120%
O=C(CN1C(=O)/C(=C/c2cccc(Cl)c2)SC1=S)Nc1ccc2oc(=O)ccc2c1 114%
COc1ccc2oc(=O)c(C(=O)Oc3ccc(C(C)=O)cc3OC)cc2c1 139%
O=C(c1ccc2c(c1)OCO2)N1CCc2nc(-c3ccccc3)[nH]c(=O)c2C1 104%
Cc1ccccc1OCCn1cnc2ccccc21 79.8%
O=C(CSc1nc(-c2ccc(Cl)cc2)cs1)NNC(=O)c1ccco1 88.8%
C#CCn1/c(=N/C(=O)c2cc(=O)c3ccccc3o2)sc2cc3c(cc21)OCCO3 131%
CCc1cc(=O)[nH]c(Nc2ccc(C)c(Cl)c2)n1 14.7%
CCOc1ccc(NC(=O)c2cnn3c(=O)c(C)c(C)[nH]c23)cc1 98.7%
Cn1c2c(c(=O)n(C)c1=O)C(c1ccc(OCc3ccccc3)cc1)C1=C(CC(C)(C)CC1=O)N2 (stereo not given) 93.5%
O=C(NCc1ccccc1Cl)C(=O)NCC(c1ccco1)S(=O)(=O)c1ccccc1 (stereo not given) 114%
CCCCN(C)c1cc(C(=O)O)c2cc(NC(=O)Cc3ccc(OC)cc3)ccc2n1 92.9%
Cc1ccc(NC(=O)N2CCCC2C(=O)Nc2cccnc2)cc1 (stereo not given) 125%
Cc1ccc2[nH]c3nc(SCC(=O)Nc4cccc(O)c4)nnc3c2c1 107%
COc1ccc(CCNc2ncnc3c2c(-c2ccccc2)cn3-c2ccccc2C)cc1 60.1%
CC(C)Sc1nc2c(c(=O)[nH]1)C(c1ccc(Br)cc1)C1=C(CCCC1=O)N2 (stereo not given) 127%
Nc1cc(O)nc(SCc2ccc(C(=O)c3ccccc3)cc2)n1 68.8%
CC(=O)N1c2ccc(NC(=O)C3(C)CC(=O)N=C4C=C(C)C=CN43)cc2CC1C (stereo not given) 99.5%
COc1cc(-c2nc(=O)[nH]c3ccc(Cl)cc23)cc(OC)c1OC 108%
O=C1CC(c2ccccc2OC2CCCC2)c2cnn(-c3nc4ccccc4s3)c2N1 (stereo not given) 95.1%
COc1ccc2nc(NCCNC(=O)c3ccc(OC)c(OC)c3)c(C#N)cc2c1 128%
CC1CCCCN1S(=O)(=O)c1ccc(C(=O)Nc2sc3c(c2C#N)CCC3)cc1 (stereo not given) 110%
Cc1cc2cc3c(N)c(C(=O)Nc4nc(C)c(C)s4)sc3nc2cc1C 92.9%
O=C(CSCc1nc(O)c2nnn(Cc3ccc(F)cc3)c2n1)Nc1ccc2c(c1)OCCO2 119%
Cc1ccc(S(=O)(=O)n2nc(OC(=O)c3ccc(Cl)cc3Cl)cc2N)cc1 113%
COc1ccc(-c2cc(C(=O)NCC(c3ccccc3Cl)N(C)C)no2)cc1 (stereo not given) 55.4%
O=C(NC(c1ccccc1)c1ccccc1)c1cnc2n(c1=O)CCS2 59.8%
Cc1c(Cl)ccc2sc(N(Cc3ccccn3)C(=O)c3ccc(S(C)(=O)=O)cc3)nc12 123%
Cc1ccnc(N2CCC(C(=O)NC3CCCCCC3)CC2)n1 69.3%
O=C(COc1ccc(Cl)cc1)N1CCN=C1SCc1ccccc1F 53.5%
O=C1CN(C(=O)c2ccccc2Br)C(c2ccccc2)c2cc(F)ccc2N1 (stereo not given) 84.6%
O=C(CC1SC(=O)N(c2ccccc2)C1=O)Nc1ccccc1 (stereo not given) 85.7%
CCCN1C(=O)C(C)(C)COc2ccc(NS(=O)(=O)c3ccc4c(c3)CCCC4)cc21 114%

Arranged by count of non-hydrogen atoms (ascending): part of the list above.
Intracellular bacterial bioluminescence, inactive:
CCc1cc(=O)[nH]c(Nc2ccc(C)c(Cl)c2)n1 14.7%
Cc1ccccc1OCCn1cnc2ccccc21 79.8%
CSc1nc2ccc(NC(=O)Nc3cccc(Cl)c3)cc2s1 103%
O=C(CC1SC(=O)N(c2ccccc2)C1=O)Nc1ccccc1 (stereo not given) 85.7%
CCOc1ccc(NC(=O)c2cnn3c(=O)c(C)c(C)[nH]c23)cc1 98.7%
O=C(CSc1nc(-c2ccc(Cl)cc2)cs1)NNC(=O)c1ccco1 88.8%
Cc1cc2cc3c(N)c(C(=O)Nc4nc(C)c(C)s4)sc3nc2cc1C 92.9%
CC(C)Sc1nc2c(c(=O)[nH]1)C(c1ccc(Br)cc1)C1=C(CCCC1=O)N2 (stereo not given) 127%
O=C1CN(C(=O)c2ccccc2Br)C(c2ccccc2)c2cc(F)ccc2N1 (stereo not given) 84.6%
CC1CCCCN1S(=O)(=O)c1ccc(C(=O)Nc2sc3c(c2C#N)CCC3)cc1 (stereo not given) 110%
O=C(CN1C(=O)/C(=C/c2cccc(Cl)c2)SC1=S)Nc1ccc2oc(=O)ccc2c1 114%
CCCN1C(=O)C(C)(C)COc2ccc(NS(=O)(=O)c3ccc4c(c3)CCCC4)cc21 114%
COc1ccc(N2CCN(CCNc3ncnc4scc(-c5ccc(Cl)cc5)c34)CC2)cc1 46.5%
